The values that follow come from publication doi:10.1101/2022.01.19.476979 (bioRxiv, 2022).

Sequences of proteins named here, by UniProt entry; tags and fusion partners are left off.
UniProt Q08AI8: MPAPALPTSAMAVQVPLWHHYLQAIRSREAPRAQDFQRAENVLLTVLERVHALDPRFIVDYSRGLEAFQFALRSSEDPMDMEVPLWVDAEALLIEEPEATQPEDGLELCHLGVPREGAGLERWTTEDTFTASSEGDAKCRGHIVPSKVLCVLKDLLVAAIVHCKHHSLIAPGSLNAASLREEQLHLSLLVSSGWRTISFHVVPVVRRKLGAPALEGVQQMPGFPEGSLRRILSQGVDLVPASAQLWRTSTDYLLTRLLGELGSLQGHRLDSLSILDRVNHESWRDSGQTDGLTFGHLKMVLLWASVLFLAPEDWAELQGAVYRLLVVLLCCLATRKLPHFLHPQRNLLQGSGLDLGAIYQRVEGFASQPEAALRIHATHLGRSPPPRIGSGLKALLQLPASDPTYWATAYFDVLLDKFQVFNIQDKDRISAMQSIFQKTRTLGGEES
UniProt Q92817: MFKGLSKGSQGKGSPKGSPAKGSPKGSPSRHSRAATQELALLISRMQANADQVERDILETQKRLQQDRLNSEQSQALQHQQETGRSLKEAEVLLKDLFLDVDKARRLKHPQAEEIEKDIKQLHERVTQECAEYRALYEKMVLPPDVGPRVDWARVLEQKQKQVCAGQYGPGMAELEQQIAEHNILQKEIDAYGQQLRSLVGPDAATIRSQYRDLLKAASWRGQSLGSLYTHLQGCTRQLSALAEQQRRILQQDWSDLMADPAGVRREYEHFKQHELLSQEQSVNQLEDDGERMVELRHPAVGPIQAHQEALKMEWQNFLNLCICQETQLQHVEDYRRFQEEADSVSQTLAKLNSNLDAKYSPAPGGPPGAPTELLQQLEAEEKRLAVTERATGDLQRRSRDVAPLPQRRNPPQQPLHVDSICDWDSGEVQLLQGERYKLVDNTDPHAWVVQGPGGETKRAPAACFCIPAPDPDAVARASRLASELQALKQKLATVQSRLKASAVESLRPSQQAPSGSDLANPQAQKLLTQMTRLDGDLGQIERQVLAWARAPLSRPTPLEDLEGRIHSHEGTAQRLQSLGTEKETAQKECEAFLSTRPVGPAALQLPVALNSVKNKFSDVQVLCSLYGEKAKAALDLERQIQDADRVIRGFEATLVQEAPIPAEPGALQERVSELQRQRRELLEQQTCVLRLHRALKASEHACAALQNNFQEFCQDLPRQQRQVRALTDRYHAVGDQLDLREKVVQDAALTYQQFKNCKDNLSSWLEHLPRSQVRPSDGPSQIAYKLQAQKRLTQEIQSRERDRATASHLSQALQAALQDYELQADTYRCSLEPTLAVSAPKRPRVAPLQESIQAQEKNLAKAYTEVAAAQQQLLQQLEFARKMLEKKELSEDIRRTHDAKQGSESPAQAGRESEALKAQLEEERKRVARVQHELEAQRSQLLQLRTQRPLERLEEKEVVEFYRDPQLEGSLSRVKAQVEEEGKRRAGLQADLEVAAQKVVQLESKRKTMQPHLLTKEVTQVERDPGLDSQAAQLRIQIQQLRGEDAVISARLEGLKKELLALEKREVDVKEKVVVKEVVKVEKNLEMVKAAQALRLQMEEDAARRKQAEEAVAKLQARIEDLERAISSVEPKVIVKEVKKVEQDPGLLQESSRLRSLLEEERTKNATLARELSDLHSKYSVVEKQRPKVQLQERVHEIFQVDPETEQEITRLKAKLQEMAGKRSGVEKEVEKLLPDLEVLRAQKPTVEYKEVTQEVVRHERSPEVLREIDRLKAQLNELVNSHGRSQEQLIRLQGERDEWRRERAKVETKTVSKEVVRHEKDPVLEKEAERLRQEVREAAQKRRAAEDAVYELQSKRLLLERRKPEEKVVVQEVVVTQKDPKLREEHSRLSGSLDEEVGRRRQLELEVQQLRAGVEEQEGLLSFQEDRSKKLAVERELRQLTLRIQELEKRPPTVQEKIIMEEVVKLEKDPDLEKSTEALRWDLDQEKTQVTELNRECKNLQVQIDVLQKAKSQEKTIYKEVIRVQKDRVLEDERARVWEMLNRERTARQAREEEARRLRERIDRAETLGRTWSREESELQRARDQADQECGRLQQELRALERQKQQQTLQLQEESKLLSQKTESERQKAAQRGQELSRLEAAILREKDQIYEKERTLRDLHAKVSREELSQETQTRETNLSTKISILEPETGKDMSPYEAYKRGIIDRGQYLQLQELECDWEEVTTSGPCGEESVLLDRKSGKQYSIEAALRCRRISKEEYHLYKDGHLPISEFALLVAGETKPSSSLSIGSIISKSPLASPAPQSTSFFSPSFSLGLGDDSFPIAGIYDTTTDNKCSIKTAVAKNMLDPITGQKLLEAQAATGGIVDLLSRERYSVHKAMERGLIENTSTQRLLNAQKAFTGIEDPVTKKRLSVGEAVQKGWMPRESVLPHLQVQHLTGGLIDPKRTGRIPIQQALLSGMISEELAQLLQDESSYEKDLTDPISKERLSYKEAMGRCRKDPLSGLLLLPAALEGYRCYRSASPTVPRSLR
UniProt O60437: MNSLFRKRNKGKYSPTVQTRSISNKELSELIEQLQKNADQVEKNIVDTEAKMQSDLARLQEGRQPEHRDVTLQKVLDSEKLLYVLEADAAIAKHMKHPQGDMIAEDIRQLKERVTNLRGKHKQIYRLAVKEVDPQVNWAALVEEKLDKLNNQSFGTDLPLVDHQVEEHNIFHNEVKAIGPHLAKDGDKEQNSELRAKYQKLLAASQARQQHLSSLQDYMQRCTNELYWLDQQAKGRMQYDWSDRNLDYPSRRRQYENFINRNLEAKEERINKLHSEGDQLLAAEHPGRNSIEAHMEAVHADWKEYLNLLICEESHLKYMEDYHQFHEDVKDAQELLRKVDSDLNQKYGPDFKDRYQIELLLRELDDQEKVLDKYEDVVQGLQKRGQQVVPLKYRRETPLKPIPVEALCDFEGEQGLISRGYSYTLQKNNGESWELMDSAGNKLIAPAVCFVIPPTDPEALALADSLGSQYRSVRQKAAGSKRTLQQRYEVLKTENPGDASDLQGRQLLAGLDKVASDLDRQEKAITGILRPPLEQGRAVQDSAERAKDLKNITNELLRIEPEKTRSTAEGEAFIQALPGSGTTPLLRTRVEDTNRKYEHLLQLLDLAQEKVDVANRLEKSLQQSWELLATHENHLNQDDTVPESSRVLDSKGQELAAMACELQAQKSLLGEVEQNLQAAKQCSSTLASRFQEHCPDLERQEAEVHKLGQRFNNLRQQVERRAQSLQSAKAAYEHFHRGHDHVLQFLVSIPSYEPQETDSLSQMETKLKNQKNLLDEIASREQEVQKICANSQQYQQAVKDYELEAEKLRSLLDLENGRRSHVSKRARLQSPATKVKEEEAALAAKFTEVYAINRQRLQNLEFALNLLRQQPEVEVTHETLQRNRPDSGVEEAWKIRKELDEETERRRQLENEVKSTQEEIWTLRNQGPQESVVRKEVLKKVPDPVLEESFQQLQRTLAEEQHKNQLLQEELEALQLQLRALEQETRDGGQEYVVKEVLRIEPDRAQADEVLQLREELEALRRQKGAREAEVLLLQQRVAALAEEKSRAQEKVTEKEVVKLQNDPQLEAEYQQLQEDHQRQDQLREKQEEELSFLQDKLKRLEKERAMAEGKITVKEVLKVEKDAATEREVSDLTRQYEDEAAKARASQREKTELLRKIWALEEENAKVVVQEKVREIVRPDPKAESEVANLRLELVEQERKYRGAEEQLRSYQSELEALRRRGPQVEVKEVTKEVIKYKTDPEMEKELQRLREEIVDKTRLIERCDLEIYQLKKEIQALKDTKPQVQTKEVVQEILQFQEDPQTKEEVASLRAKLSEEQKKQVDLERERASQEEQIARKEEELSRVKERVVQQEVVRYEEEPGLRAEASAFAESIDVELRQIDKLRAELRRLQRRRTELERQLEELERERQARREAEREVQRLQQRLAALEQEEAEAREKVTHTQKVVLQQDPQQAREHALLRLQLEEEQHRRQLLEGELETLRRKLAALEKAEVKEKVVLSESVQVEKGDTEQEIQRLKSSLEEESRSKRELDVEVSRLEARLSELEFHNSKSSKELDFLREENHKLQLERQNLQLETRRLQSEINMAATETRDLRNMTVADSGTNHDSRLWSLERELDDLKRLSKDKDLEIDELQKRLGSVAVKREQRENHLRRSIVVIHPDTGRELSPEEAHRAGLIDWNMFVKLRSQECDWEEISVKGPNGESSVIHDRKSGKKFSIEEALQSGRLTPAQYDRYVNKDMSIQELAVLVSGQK

For this assay, the target named is MAB21L4 (endogenous) (human (endogenous in human skin and skin organoids)) (UniProt Q08AI8). The assay is described as follows: proximity ligation.

These are yes or no findings as the source states them, for the method shown. In cells and extracts the contact can be indirect. Some entries that bind do so weakly or less than the wild type.

In the case of “envoplakin, endogenous in human skin organoids (from UniProt Q92817 1-2033)”, the binding entry is “binds”.

Regarding “periplakin, endogenous in human skin organoids (from UniProt O60437 1-1756)”, the binding result was “binds”.
